Data published in patent US20060205756A1, “Antitussives” (Kyowa Hakko Kogyo Co., Ltd., priority 2003, published 2006).
At least one compound was matched to its structure with a doubt left.

Test system: citric acid-induced cough
Assay: Citric acid-induced cough model of guinea pig
Format: in vivo
Settings: 20 mg/kg oral; Aspin-Welch's test versus solvent-administered group
Text: Antitussive activity is able to be evaluated by suppression of the cough induced by inhalation of a substance such as citric acid, capsaicin, etc. It is also possible to evaluate antitussive activity by suppression of the cough induced by a direct infusion of citric acid or capsaicin into airway [Nippon Yakurigaku Zasshi, volume 120, page 237 (2002)]. It is further possible to evaluate antitussive activity by suppression of the cough by a physical stimulation, for example, contact stimulation of throat or airway [Eur. J. Phazmacol., volume 329, page 93 (1997)].
Evaluation Using the Citric Acid-Induced Cough Model of Guinea Pig
Guinea pigs (Hartley strain; male; six weeks age; Nippon SLC) were used for the test. Induction of cough reflex by citric acid was conducted in a similar manner to the method by Hosoe, et al. [Yakuri to Rinsho, volume 5, page 2147 (1995)]. […] The cough reflex was measured by the generated cough sound and the respiration waveform. Numbers of coughs generated during 15 minutes from initiation of inhalation of citric acid were counted. […] Numbers of the cough reflex were expressed as the mean value ±standard error. […] Numbers of the cough reflex were expressed as the mean value±standard error. […] Numbers of the cough reflex were expressed as the mean value±standard error.

COc1ccc2c3c1O[C@H]1[C@@H](O)C=C[C@H]4[C@@H](C2)N(C)CC[C@@]341 [codeine phosphate, reference compound]
Suppression of cough reflex as compared with the solvent group: significant suppressive response
